The supplement of paper PMC7858590
± gives the standard deviation of the averaged measurements. In all, about 3,800 compounds were measured (“cell shape (eccentricity) Z-score vs DMSO control”: median about 1.1, lowest 2% from about -4.7 on). The list shows a part of the results.

Each molecule was assayed on human monocyte-derived macrophages (M0) (assay: cell shape (eccentricity) Z-score vs DMSO control; higher = more elongated, M2-like morphology). Conditions: 20 µM; 24 h; macrophage state: M0 (M-CSF).
Procedure: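 Primary human monocyte-derived macrophages (M-CSF differentiated, pooled from 4 donors, 5000 cells/well in 384-well plates) were treated with each compound at 20 uM for 24 h, then fixed and stained with phalloidin/DAPI and imaged on an Opera Phenix (6 fields, about 1000 cells/well). Cell eccentricity was measured with CellProfiler, and a Z-score (t-test) was computed against 4 DMSO control wells in the same row. Negative values mean round (M1-like) cells and positive values mean elongated (M2-like) cells; the paper's hit cutoffs are Z <= -4 (M1) and Z >= 6 (M2). Scale: negative = round, M1-like.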

Row | SMILES | cell shape (Z-score)
1 | C[C@]12C[C@H](O)C3C(CC[C@@H]4C[C@H](O)CC[C@]34C)C1CC[C@@H]2C(=O)CO (stereo not given in full) | 0.401
2 | O=C(O)c1cc(O)c2cccc(O)c2n1 | 0.344
3 | CCN(CC)C(=S)SSC(=S)N(CC)CC | 6.44
4 | Cn1cc(C2=C(c3cn(CCCSC(=N)N)c4ccccc34)C(=O)NC2=O)c2ccccc21 | 14.6
5 | CC1(C)CC23C(=O)CCC(O)C2(C)CCC13 (stereo not given) | -0.321
6 | COc1ccc(OC)c(C(O)CNC(=O)CN)c1 (stereo not given) | 2.16
7 | CC(=O)N1CCN(c2ccc(OCC3CO[C@](Cn4ccnc4)(c4ccc(Cl)cc4Cl)O3)cc2)CC1 (stereo not given in full) | 2.59
8 | NC(=O)N/N=C/c1ccc([N+](=O)[O-])o1 | -0.778
9 | CCCc1c(OCC(O)COc2ccc3c(=O)cc(C(=O)O)oc3c2CCC)ccc(C(C)=O)c1O (stereo not given) | -4.47
10 | COC(=O)c1ccccc1NC(=O)c1ccc(F)cc1 | 0.691
11 | O=C(/C=C/c1ccc(O)cc1)NCCc1ccc(O)cc1 | 2.93
12 | COC(=O)C1=COC(O[C@@H]2O[C@H](CO)[C@@H](O)[C@H](O)[C@H]2O)[C@@H]2[C@@H](C)[C@@H](OC(=O)/C=C/c3ccc(O)c(O)c3)[C@@H](O)[C@H]12 (stereo not given in full) | 2.16
13 | CS(=O)c1ccc(-c2nc(-c3ccc(F)cc3)c(-c3ccncc3)[nH]2)cc1 (stereo not given) | 3.26
14 | COc1cc(CCC(O)CC(O)CCc2ccc(O)c(OC)c2)ccc1O (stereo not given) | 1.81
15 | C[C@@H]1CC[C@H]2[C@@H](C)C(O)O[C@@H]3O[C@]4(C)CC[C@@H]1[C@]32OO4 (stereo not given in full) | 2.48
16 | S=c1ccss1 | 3.29
17 | O=C1c2c(O)cc(O)cc2O[C@H](c2ccccc2)[C@H]1O | 2.84
18 | CC(C)(C)C(=O)C(Oc1ccc(Cl)cc1)n1ccnc1 (stereo not given) | 1.92
19 | COc1ccc(-c2cc(=O)c3c(O)cc(O[C@@H]4O[C@@H](CO[C@@H]5O[C@H](C)[C@@H](O)[C@H](O)[C@H]5O)[C@H](O)[C@@H](O)[C@H]4O)cc3o2)cc1O | -0.595
20 | COc1ccc(/C=C/C(=O)Nc2ccccc2C(=O)O)cc1OC | 0.176
21 | CC(C)n1nnc2cc(C(=O)O)ccc21 | 3.96
22 | Cc1cc(NS(=O)(=O)c2ccc(N)cc2)no1 | -8.11

Row | SMILES | cell shape (Z-score)
23 | CC(CN(C)C)CN1c2ccccc2CCc2ccccc21 (stereo not given) | 1.87
24 | O=C(CCCCCC/C=C/c1ccc2c(c1)OCO2)N1CCCCC1 | 2.57
25 | COc1cc(O[C@@H]2O[C@H](CO)[C@@H](O)[C@H](O)[C@H]2O)cc2occ(-c3ccc(O)cc3)c(=O)c12 | 1.17
26 | CN1CCN(CCOc2cc(OC3CCOCC3)c3c(Nc4c(Cl)ccc5c4OCO5)ncnc3c2)CC1 | 5.59
27 | Cc1c(Nc2ncccc2C(=O)O)cccc1C(F)(F)F | 2.7
28 | Cc1c(NC(C)C)c(=O)n(-c2ccccc2)n1C | 0.0308
29 | CC1OC(OC2C(OC3C(O[C@H]4CC[C@@]5(C)C(CC[C@]6(C)C5CC=C5C7CC(C)(C)CC(O)[C@]7(C)CC[C@]56C)C4(C)C)OC(C(=O)O)C(O)C3O)OCC(O)C2O)C(O)C(O)C1O (stereo not given in full) | 1.53
30 | CCOC(=O)n1ccn(C)c1=S | 1.35
31 | O=C1OC(=O)C2C3CCC(O3)C12 (stereo not given) | 3.71
32 | CC(C)[C@H]1c2ccc(F)cc2CC[C@@]1(CCN(C)CCCc1nc2ccccc2[nH]1)OC(=O)C1CC1 | 4.07
33 | C=CC(C)(O)CC(/C=C(\C)CC(/C=C(\C)CCC=C(C)C)OC(C)=O)OC(C)=O (stereo not given) | -0.322
34 | CC(C)C12CC1C(C)(O[C@@H]1O[C@H](CO)[C@@H](O)[C@H](O)[C@H]1O)CC2=O (stereo not given in full) | 1.52
35 | COc1cc2c(cc1OC)C(=O)CC2 | 1.81
36 | CC1(C)CC[C@]2(C(=O)OC3OC(CO)C(O)C(O)C3O)CC[C@]3(C)C(=CCC4[C@@]5(C)CC[C@H](OC6OC(C(=O)O)C(O)C(O)C6O)C(CO)(CO)C5CC[C@]43C)[C@@H]2C1 (stereo not given in full) | -0.601
37 | COC(=O)C(CCCNC(=N)N)NC(=O)CCCc1c(-c2ccccc2)[nH]c2c(F)cc(F)cc12 (stereo not given) | 6.11
38 | Cc1ccnc(NS(=O)(=O)c2ccc(N)cc2)n1 | 1.19
39 | COC(=O)Nc1nc2cc(SC(C)C)ccc2[nH]1 | -4.88 ± 0.16
40 | COc1ccc(/C=C/C(=O)c2c(-c3ccccc3)c3ccccc3[nH]c2=O)cc1 | 2.88
41 | CCC(=C(c1ccccc1)c1ccc(OCCN(C)C)cc1)c1ccccc1 | -1.43
42 | C=C1C(=O)O[C@H]2C[C@@H](C)[C@@H]3CCC(=O)[C@@]3(C)C[C@H]12 | -2.44
43 | COCCOC(=O)C1=C(C)NC(C)=C(C(=O)OC(C)C)C1c1cccc([N+](=O)[O-])c1 (stereo not given) | 4.62
44 | CC(C)Cc1cnc(CCC(N)=O)c(=O)[nH]1 | -0.681

Row | SMILES | cell shape (Z-score)
45 | CC(=O)OC[C@H]1O[C@@H](Oc2c(-c3ccc(O)cc3)oc3cc(O)cc(O)c3c2=O)[C@H](O)[C@@H](O)[C@@H]1O | 1.79
46 | OCC(Cc1ccc2c(c1)OCO2)C(CO)Cc1ccc2c(c1)OCO2 (stereo not given) | 1.02 ± 0.32
47 | c1ccc(-c2nc3ccccc3[nH]2)cc1 | 1.25
48 | O=C1OCc2cc3cccc(O[C@@H]4O[C@H](CO[C@@H]5OC[C@@H](O)[C@H](O)[C@H]5O)[C@@H](O)[C@H](O)[C@H]4O)c3c(O)c21 | 3.35
49 | C=CC1CN(C(C)=O)CCC1CCC(=O)c1ccnc2ccccc12 (stereo not given) | -1.55
50 | C=C[C@@]1(C)CC(=O)[C@]2(O)[C@@]3(C)[C@@H](O)CCC(C)(C)[C@@H]3[C@H](O)[C@H](OC(=O)CCCN3CCN(C)CC3)[C@@]2(C)O1 | 2.22
51 | COc1ccc(C(C)C(=O)c2ccc(O)cc2O)cc1O (stereo not given) | 2.94 ± 1.8
52 | CC(=O)O[C@@H]1[C@@H](OC(=O)/C=C/c2ccccc2)[C@H](C)O[C@@H](O[C@H]2[C@@H]3C=CO[C@@H](O[C@@H]4O[C@H](CO)[C@@H](O)[C@H](O)[C@H]4O)[C@@H]3[C@@]3(CO)O[C@@H]23)[C@@H]1OC(C)=O | 1.75
53 | CC1=CC(=O)CC(C)(C)[C@@]1(O)/C=C/C(C)=C\C(=O)O | 0.468
54 | CCCCCC[C@H](O)[C@@H]1C[C@@H](O)C2=C(O1)[C@@H](O)CCC2=O | 0.424 ± 3.9
55 | CC[C@@]1(O)C(=O)OCc2c1cc1n(c2=O)Cc2cc3cc(O)ccc3nc2-1 | 0.605
56 | CC1(C)CC[C@@]2(C(=O)O[C@@H]3O[C@H](CO)[C@@H](O)[C@H](O)[C@H]3O)C(C1)C1=CCC3[C@@]4(C)CC[C@@H](O[C@@H]5O[C@H](C(=O)O)[C@@H](O[C@@H]6OC[C@@H](O)[C@H](O)[C@H]6O)[C@H](O)[C@H]5O)C(C)(C)C4CC[C@@]3(C)[C@]1(C)C[C@H]2O (stereo not given in full) | 1.81
57 | COC(=O)C1=COC(OC2OC(CO)C(O)C(O)C2O)C2C1C=CC2(O)CO (stereo not given) | 0.394
58 | CC1OC(O[C@H]2CC[C@@]3(C)C(CC[C@]4(C)C3CC=C3[C@@H]5CC(C)(C)C[C@@H](O)[C@]5(C)CC[C@]34C)[C@@]2(C)CO)C(OC2OC(C(=O)O)C(O)C(O)C2OC2OCC(O)C(O)C2O)C(O)C1O (stereo not given in full) | 2.43
59 | Cc1c(O)cc2c(c1O)C(=O)CC(c1ccccc1)O2 (stereo not given) | 0.559
60 | CCC1=C(C)CN(C(=O)NCCc2ccc(S(=O)(=O)NC(=O)NC3CCC(C)CC3)cc2)C1=O (stereo not given) | 4.63
61 | CN1CCN(CC(=O)N2c3ccccc3C(=O)Nc3cccnc32)CC1 | 2.02
62 | C=C(C)C1Cc2cc(C(C)=O)ccc2O1 (stereo not given) | 2.02 ± 0.97
63 | COc1ccc(/C=C/C(=O)O[C@H]2[C@@H]3C=CO[C@@H](O[C@@H]4O[C@H](CO)[C@@H](O)[C@H](O)[C@H]4O)[C@@H]3[C@@]3(CO)O[C@@H]23)cc1O | 1.15
64 | C[C@@H]1CN([C@H](C)CO)C(=O)c2cccc(NC(=O)c3ccncc3)c2O[C@H]1CN(C)Cc1ccc2c(c1)OCO2 | 0.76
65 | CCCc1c(C(=O)O)cc2c(c1O)C(=O)c1c(O)cccc1C2=O | 1.56
66 | CC1=C(/C=C/C(C)=C/C=C/C(C)=C/CO)C(C)(C)CCC1 | 0.442

A draw from above in order of number of heavy atoms, rising.
Row | SMILES | cell shape (Z-score)
47 | c1ccc(-c2nc3ccccc3[nH]2)cc1 | 1.25
63 | COc1ccc(/C=C/C(=O)O[C@H]2[C@@H]3C=CO[C@@H](O[C@@H]4O[C@H](CO)[C@@H](O)[C@H](O)[C@H]4O)[C@@H]3[C@@]3(CO)O[C@@H]23)cc1O | 1.15
56 | CC1(C)CC[C@@]2(C(=O)O[C@@H]3O[C@H](CO)[C@@H](O)[C@H](O)[C@H]3O)C(C1)C1=CCC3[C@@]4(C)CC[C@@H](O[C@@H]5O[C@H](C(=O)O)[C@@H](O[C@@H]6OC[C@@H](O)[C@H](O)[C@H]6O)[C@H](O)[C@H]5O)C(C)(C)C4CC[C@@]3(C)[C@]1(C)C[C@H]2O (stereo not given in full) | 1.81

The list goes on:

Row | SMILES | cell shape (Z-score)
67 | O=C(O)c1ccc2c3c1cccc3c(=O)n1c3ccccc3nc21 | 1.59
68 | O=c1c(O[C@@H]2OC[C@H](O)[C@H](O)[C@H]2O)c(-c2ccc(O)c(O)c2)oc2cc(O)cc(O)c12 | 1.8
69 | Oc1ccc(Nc2nc(-c3ccc(Cl)cc3)cs2)cc1 | 0.945
70 | Oc1cccc2[nH]ccc12 | 1.88
71 | c1nc(CC2CCNCC2)c[nH]1 | 2.69
72 | O=CNCCc1c[nH]c2ccccc12 | 1.21
73 | O=C(Nc1ccccc1)N1CCC(Cc2cnc3ccccc3c2)CC1 | 1.19
74 | C=C1C(=O)O[C@@H]2C=C(C)[C@@H]3CC[C@@](C)(O)[C@@H]3C[C@H]12 | -2.609 ± 0.01
75 | NC(=O)N1c2ccccc2C=Cc2ccccc21 | 3.81
76 | CCN(CC)CCOC(=O)c1ccc(N)cc1 | 0.0479
77 | COc1cc(N)c(Cl)cc1C(=O)N[C@@H]1CCNCC1OC (stereo not given in full) | 0.342
78 | COC(=O)C1=C(C)NC(C)=C(C(=O)OCCN(C)Cc2ccccc2)C1c1cccc([N+](=O)[O-])c1 (stereo not given) | 1.21
79 | C=CC(C)(O)CCC1(C)C2=C(C(OC(C)=O)C(OC(C)=O)C1C)C(C)(C)CCC2 (stereo not given) | 2.73
80 | CCCC[C@@H](O)c1cc(OC)cc(=O)o1 | -0.886 ± 4.1
81 | Nc1nnc(-c2cccc(Cl)c2Cl)c(N)n1 | -1.25
82 | C/C(=C/CCC(CO)C1CCC2(C)C3CCC4C(C)(C)C(OC5OC(CO)C(O)C(O)C5O)CCC45CC35CCC12C)COC1OC(COC2OC(CO)C(O)C(O)C2O)C(O)C(O)C1O (stereo not given) | -1.37
83 | C[C@@H]1CC[C@]2(C(=O)O)CC[C@]3(C)C(=CCC4[C@@]5(C)CC[C@@H](O)[C@](C)(C(=O)O)C5CC[C@]43C)C2[C@H]1C (stereo not given in full) | 0.305 ± 2.9
84 | CC1(C)CC[C@]2(C(=O)O[C@@H]3O[C@H](CO)[C@@H](O)[C@H](O)[C@H]3O)CC[C@]3(C)C(=CCC4[C@@]5(C)CC[C@H](O[C@@H]6O[C@H](C(=O)O)[C@@H](O)[C@H](O)[C@H]6O)[C@@](C)(CO)C5CC[C@]43C)C2C1 (stereo not given in full) | 0.209
85 | C[C@H]1O[C@@H](O[C@H]2[C@@H](O)C[C@H](O[C@H]3[C@@H](O)C[C@H](O[C@H]4CC[C@]5(C)C6CC[C@]7(C)[C@@H](C8=CC(=O)OC8)CC[C@]7(O)C6CC[C@@H]5C4)O[C@@H]3C)O[C@@H]2C)C[C@H](O)[C@@H]1O (stereo not given in full) | -0.685
